Laboratory results: the supplement of paper PMC10849652
Some of the results follow.

By UniProt entry, the sequences of proteins in these tests, tags left out. Where a name states a change or a piece, a line headed by the entry shows the natural chain unless it says otherwise.
UniProt Q9P0S3: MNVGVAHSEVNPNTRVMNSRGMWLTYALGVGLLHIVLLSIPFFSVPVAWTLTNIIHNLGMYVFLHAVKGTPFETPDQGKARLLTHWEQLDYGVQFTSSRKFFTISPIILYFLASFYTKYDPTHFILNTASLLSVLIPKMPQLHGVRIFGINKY
UniProt P07237: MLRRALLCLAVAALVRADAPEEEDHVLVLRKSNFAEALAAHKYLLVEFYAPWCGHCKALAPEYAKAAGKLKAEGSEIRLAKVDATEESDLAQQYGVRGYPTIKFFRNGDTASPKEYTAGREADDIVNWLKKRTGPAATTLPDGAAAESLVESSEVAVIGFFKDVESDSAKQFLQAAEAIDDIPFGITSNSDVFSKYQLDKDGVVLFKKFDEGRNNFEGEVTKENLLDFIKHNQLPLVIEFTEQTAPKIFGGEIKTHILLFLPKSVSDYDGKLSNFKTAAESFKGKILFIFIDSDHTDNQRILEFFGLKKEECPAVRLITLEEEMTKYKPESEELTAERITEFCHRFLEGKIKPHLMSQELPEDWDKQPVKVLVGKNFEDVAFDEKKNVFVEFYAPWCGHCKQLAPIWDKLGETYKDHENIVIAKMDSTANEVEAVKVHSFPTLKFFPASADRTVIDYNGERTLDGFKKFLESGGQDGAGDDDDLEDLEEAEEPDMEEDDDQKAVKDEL
UniProt Q969T7: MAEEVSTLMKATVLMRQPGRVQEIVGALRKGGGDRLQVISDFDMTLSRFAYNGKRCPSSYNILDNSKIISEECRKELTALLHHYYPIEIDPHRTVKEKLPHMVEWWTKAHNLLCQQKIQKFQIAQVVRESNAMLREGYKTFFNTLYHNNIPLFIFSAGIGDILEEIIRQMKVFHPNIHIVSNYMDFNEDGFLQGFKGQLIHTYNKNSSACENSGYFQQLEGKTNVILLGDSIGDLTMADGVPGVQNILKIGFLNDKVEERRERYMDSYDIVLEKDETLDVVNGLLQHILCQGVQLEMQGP
UniProt P47900: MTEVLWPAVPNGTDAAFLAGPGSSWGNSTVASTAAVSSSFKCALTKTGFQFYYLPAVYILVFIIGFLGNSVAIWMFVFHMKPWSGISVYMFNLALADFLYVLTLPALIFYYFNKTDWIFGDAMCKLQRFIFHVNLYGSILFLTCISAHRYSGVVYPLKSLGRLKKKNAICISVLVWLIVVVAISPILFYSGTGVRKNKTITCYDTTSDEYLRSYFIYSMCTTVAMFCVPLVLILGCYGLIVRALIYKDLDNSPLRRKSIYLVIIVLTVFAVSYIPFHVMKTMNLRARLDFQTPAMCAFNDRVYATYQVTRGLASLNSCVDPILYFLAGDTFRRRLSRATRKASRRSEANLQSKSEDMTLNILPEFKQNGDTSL
UniProt Q6ZVK8: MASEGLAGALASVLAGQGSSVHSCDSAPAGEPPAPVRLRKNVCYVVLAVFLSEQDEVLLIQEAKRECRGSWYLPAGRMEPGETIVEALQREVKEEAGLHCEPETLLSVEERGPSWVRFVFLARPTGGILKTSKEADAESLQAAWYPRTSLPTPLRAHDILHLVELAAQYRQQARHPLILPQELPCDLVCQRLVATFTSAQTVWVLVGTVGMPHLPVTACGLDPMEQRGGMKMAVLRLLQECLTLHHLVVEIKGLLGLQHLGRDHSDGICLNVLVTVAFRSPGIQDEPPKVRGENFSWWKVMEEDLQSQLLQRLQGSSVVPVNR
UniProt Q8IVL6: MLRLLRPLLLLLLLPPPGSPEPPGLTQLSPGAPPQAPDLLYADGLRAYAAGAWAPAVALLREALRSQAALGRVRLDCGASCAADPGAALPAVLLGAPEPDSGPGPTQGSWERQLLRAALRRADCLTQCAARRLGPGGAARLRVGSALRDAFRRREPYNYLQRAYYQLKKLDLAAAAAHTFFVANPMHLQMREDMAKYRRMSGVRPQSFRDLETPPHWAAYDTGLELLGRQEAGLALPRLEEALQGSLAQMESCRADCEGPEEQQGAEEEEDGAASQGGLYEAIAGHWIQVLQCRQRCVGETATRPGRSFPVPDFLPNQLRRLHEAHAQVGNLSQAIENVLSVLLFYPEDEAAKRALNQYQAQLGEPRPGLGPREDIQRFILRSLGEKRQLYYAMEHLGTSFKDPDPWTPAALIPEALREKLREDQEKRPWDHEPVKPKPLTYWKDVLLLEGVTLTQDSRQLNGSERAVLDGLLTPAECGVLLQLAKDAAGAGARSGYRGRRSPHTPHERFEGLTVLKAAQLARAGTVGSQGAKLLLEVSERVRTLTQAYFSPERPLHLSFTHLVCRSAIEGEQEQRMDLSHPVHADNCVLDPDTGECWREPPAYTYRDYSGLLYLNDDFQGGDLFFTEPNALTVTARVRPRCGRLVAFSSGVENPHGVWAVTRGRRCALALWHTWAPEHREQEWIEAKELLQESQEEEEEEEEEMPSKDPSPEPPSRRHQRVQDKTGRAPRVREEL
UniProt Q9BZF3: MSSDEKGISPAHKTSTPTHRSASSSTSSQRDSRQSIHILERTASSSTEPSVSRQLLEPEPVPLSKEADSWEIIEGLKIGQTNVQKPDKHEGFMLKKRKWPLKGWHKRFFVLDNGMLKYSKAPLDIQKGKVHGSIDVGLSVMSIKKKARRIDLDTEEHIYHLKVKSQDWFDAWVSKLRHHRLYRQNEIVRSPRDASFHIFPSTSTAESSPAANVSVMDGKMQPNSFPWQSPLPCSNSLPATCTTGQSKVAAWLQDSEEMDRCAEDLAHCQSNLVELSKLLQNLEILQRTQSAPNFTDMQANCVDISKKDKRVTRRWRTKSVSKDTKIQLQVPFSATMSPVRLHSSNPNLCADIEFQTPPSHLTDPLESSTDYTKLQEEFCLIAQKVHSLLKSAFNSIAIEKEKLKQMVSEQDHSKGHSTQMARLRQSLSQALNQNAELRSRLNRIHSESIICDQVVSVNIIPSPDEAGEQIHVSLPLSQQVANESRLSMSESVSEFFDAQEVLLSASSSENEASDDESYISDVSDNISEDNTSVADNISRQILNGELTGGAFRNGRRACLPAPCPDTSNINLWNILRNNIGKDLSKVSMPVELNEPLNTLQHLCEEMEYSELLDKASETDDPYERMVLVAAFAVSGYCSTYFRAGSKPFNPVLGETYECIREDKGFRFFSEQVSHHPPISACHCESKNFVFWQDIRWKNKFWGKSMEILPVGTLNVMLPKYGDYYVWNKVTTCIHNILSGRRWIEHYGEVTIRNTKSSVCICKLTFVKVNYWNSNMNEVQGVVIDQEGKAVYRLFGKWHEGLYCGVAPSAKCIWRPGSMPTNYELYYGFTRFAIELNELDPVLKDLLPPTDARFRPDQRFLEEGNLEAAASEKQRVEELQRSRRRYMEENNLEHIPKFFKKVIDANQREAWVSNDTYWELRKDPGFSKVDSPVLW
UniProt Q9BRQ3: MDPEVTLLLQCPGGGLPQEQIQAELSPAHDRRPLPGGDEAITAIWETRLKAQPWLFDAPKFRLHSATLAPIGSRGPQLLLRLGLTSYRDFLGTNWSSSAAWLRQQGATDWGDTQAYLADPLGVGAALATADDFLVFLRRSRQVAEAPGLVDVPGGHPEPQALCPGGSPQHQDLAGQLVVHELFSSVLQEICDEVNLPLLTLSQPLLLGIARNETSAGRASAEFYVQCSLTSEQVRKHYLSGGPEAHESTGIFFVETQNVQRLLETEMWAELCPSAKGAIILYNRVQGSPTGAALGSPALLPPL
UniProt O43913: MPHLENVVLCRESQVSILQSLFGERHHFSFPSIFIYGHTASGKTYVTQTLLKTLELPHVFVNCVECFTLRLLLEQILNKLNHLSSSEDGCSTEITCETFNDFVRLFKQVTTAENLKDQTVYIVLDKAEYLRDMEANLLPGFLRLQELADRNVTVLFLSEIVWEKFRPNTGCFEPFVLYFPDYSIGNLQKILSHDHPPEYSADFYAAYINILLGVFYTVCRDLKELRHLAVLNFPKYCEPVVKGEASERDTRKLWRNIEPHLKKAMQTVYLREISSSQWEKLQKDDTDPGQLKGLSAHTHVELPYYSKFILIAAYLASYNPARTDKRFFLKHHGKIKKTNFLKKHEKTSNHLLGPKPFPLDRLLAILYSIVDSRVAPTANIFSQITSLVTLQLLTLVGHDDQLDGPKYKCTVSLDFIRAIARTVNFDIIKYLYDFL
UniProt Q13416: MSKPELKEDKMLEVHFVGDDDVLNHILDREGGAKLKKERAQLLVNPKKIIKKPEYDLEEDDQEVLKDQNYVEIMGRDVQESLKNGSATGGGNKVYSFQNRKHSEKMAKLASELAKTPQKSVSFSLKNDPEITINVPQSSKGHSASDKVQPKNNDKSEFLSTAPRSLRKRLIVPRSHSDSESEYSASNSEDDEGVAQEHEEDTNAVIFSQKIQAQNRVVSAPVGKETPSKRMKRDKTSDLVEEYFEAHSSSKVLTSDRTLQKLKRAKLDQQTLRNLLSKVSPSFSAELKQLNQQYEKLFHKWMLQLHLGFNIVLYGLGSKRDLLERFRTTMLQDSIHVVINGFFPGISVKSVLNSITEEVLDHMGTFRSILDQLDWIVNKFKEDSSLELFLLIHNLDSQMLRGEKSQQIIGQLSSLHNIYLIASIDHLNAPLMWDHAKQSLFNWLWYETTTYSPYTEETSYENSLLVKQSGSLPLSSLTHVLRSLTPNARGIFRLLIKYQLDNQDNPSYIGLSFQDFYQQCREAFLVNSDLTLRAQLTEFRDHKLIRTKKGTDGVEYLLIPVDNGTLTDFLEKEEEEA
UniProt Q9ULJ1: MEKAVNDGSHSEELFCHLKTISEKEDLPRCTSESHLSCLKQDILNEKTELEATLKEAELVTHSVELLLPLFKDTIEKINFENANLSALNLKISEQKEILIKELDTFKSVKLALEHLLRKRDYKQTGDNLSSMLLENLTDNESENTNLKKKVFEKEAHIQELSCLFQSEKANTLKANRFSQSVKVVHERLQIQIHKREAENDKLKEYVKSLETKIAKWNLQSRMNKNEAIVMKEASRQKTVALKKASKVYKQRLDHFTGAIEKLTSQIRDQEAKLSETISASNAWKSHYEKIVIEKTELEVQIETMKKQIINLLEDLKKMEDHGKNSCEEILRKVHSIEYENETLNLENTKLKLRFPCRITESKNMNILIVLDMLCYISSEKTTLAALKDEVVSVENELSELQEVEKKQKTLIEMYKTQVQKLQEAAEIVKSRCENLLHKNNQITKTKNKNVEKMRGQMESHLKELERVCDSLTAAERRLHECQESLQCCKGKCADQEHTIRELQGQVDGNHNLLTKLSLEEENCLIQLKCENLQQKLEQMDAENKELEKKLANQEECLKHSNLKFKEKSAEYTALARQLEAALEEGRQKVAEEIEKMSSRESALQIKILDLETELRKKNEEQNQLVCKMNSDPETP
UniProt O15460: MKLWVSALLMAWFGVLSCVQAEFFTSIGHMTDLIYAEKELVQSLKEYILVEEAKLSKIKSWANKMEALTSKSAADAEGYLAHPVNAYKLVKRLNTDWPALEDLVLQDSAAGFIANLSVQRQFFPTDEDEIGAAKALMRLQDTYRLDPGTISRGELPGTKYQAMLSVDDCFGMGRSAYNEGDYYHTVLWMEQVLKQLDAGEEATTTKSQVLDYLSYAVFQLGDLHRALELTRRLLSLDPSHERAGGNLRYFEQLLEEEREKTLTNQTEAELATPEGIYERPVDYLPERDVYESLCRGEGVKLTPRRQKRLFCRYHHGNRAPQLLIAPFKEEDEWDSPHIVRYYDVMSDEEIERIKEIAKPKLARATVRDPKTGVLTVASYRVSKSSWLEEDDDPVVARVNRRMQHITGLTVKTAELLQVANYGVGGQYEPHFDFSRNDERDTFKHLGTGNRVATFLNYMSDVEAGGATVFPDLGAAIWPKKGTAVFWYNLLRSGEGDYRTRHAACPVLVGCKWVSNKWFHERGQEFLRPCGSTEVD
UniProt Q32P28: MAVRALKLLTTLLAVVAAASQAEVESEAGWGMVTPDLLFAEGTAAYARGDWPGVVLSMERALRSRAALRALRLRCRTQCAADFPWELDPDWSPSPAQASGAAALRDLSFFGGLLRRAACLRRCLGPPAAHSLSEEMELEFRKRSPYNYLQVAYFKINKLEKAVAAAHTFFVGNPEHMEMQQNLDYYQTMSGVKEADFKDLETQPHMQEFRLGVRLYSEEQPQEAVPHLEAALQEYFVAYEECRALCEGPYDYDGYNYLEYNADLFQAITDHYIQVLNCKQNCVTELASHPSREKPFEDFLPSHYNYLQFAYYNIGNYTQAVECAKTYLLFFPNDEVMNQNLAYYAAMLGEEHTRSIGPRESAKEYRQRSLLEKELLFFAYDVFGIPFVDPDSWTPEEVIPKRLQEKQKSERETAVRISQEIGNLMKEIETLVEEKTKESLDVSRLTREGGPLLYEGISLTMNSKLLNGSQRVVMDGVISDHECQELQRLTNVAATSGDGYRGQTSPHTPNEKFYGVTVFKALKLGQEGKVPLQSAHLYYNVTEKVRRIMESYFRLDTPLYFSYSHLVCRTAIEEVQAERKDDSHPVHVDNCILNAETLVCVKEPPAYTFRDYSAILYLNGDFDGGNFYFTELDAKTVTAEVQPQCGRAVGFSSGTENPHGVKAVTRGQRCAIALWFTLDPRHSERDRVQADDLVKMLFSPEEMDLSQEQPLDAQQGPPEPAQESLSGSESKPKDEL

How the values were obtained:
Experiment in all cases: log2 fold change, soluble protein after heating vs DMSO (PISA); higher = thermal stabilisation; K562 cells, 10 uM, 30 min; active = over 0.2 and 3.5 SD of the protein, either way, in both replicates (recomputed)
[1] = compound: C/C(=N\NC(=O)C1=CC(=CC=C1)S(=O)(=O)N2CCOCC2)/C3=C(C=CC(=C3)Cl)O
How it was run: (§1)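 K562 cells (2×10^6 cells/mL) were treated with 10 μM compound for 30 min, and aliquots were heated for 3 min over 48°C-58°C. Pooled aliquots were extracted in PBS with 0.5% NP-40 at 4°C, and the supernatant after 21,000xg for 90 min was measured by TMTpro 16plex LC-MS/MS with channel sums equalised. Reported thermal stability, relative to control samples and from duplicates, is a log2 fold change.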

[2] = compound: C1=CC(=C(C=C1Cl)C2=NC3=NC=CN=C3C(=N2)NC4=CC=NC=C4)F
How it was run: as §1

[3] = compound: C1=CC2=C(C=CC(=C2)/C=C\3/C(=O)NC(=NCC4=CC=CS4)S3)N=C1
How it was run: as §1

[4] = compound: C1=CC=C(C=C1)C2=NC(=C(N2)C3=CC=NC=C3)C4=CC(=C(C=C4)Cl)O
How it was run: as §1

[5] = compound: C1=CC=C2C(=C1)C3=NNC4=CC=CC(=C43)C2=O
How it was run: as §1

[6] = compound: C1CCN(C1)C(=O)NC2=CC=CC(=C2)NC3=NC=C(C(=N3)NCCC4=CN=CN4)Br
How it was run: as §1

[7] = compound: C1CN(CCC1(CC2=CC=C(C=C2)Cl)N)C3=NC=NC4=C3C=CN4
How it was run: as §1

erlotinib = compound: C#Cc1cccc(Nc2ncnc3cc(OCCOC)c(OCCOC)cc23)c1 [erlotinib]
How it was run: as §1

[8] = compound: C1=CC(=CC=C1C2=NC3=C(N2)C=C(C=C3)C(=O)N)OC4=CC=C(C=C4)Cl
How it was run: as §1

[9] = compound: C1=CC2=NC=CN=C2C=C1/C=C/3\C(=O)NC(=O)S3
How it was run: as §1

Row | Target | log2 fold change [1] | log2 fold change [2] | log2 fold change [3] | log2 fold change [4] | log2 fold change [5] | log2 fold change [6] | log2 fold change [7] | log2 fold change (erlotinib) | log2 fold change [8] | log2 fold change [9]
1 | OXR1 isoform 2 (UniProt Q8N573) | inactive: 0.137 | inactive: -0.362 | inactive: -0.034 | inactive: -0.056 | inactive: 0.068 | inactive: 0.02 | inactive: -0.022 | – | – | –
2 | ORMDL1 (UniProt Q9P0S3) | – | inactive: -0.22 | – | – | – | inactive: -0.019 | inactive: 0.063 | inactive: -0.099 | inactive: 0.076 | –
3 | P4HB (UniProt P07237) | inactive: -0.007 | inactive: 0.013 | inactive: -0.041 | inactive: -0.032 | inactive: -0.02 | inactive: 0.04 | inactive: 0.051 | inactive: -0.042 | inactive: 0 | inactive: 0.024
4 | NT5C3B (UniProt Q969T7) | inactive: -0.029 | – | inactive: 0.084 | inactive: 0.049 | inactive: -0.002 | inactive: 0.033 | inactive: -0.064 | inactive: 0.04 | inactive: 0.019 | inactive: -0.042
5 | P2RY1 (UniProt P47900) | inactive: 0 | inactive: -0.027 | inactive: 0.03 | – | inactive: 0.005 | – | – | inactive: -0.044 | inactive: 0.016 | –
6 | NUDT18 (UniProt Q6ZVK8) | inactive: 0.045 | inactive: 0.103 | inactive: 0.019 | inactive: 0.036 | inactive: 0.015 | inactive: -0.069 | inactive: 0.052 | inactive: -0.021 | inactive: -0.016 | –
7 | P3H3 (UniProt Q8IVL6) | – | inactive: 0.014 | – | – | – | inactive: 0.199 | inactive: 0.106 | – | – | –
8 | OSBPL6 isoform 5 (UniProt Q9BZF3) | inactive: 0.817 | inactive: -1.35 | inactive: 0.058 | inactive: 0.308 | inactive: 0.313 | – | – | inactive: 0.693 | inactive: 0.503 | –
9 | NUDT22 (UniProt Q9BRQ3) | inactive: -0.033 | – | inactive: -0.033 | – | inactive: 0.22 | – | – | – | – | inactive: -0.154
10 | ORC6 (UniProt Q9Y5N6) | – | inactive: 0.112 | – | inactive: 0.004 | – | – | – | – | – | –
11 | ORC5 (UniProt O43913) | inactive: 0.177 | – | inactive: 0.05 | inactive: 0.031 | inactive: 0.01 | inactive: -0.13 | inactive: -0.026 | inactive: 0.089 | inactive: 0.046 | inactive: 0.062
12 | ORC2 (UniProt Q13416) | – | inactive: 0.039 | – | inactive: -0.048 | – | inactive: -0.055 | inactive: 0.105 | inactive: 0.051 | inactive: 0.017 | inactive: -0.055
13 | NUDT5 (UniProt C9JYY9) | inactive: -0.396 | inactive: -0.347 | inactive: 0.208 | – | inactive: -0.112 | inactive: -0.256 | inactive: -0.101 | inactive: 0.041 | inactive: -0.211 | inactive: -0.033
14 | ODF2L isoform 4 (UniProt Q9ULJ1) | – | – | – | – | – | – | – | – | – | inactive: 0.021
15 | P4HA2 (UniProt O15460) | – | active: -0.548 | – | inactive: -0.02 | – | inactive: -0.016 | inactive: -0.035 | inactive: -0.075 | inactive: 0.034 | inactive: -0.025
16 | OVCA2 (UniProt Q8WZ82) | inactive: 0.23 | – | inactive: 0.108 | inactive: -0.044 | inactive: -0.131 | – | – | – | – | inactive: 0.268
17 | P3H1 (UniProt Q32P28) | inactive: -0.087 | inactive: -0.092 | inactive: -0.005 | inactive: -0.016 | inactive: -0.025 | inactive: 0.01 | inactive: -0.053 | inactive: -0.075 | inactive: 0.017 | inactive: -0.021

Some values from the results shown.
Under log2 fold change [1], NUDT22 (UniProt Q9BRQ3) has inactive: -0.033
Under log2 fold change [4], ORC6 (UniProt Q9Y5N6) has inactive: 0.004
